Data on five compounds can be found in the supplement of paper PMC4604168 (melanoma cell lines).

Each structure is given as a SMILES string. The list shows a part of the results. Single values are uncertain, as repeats are few or missing.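 Imaging used 1,536-well plates; nuclei positive for cleaved PARP by antibody were divided by total DNA-stained nuclei to yield the apoptosis fraction. Doses for screening kept most cells viable, and cell lines differ markedly in resting and induced cleaved-PARP levels.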

This assay has as its system SkMel30. Nature of the assay: cleaved PARP positive nuclei fraction relative to DMSO control; melanoma cells; higher = more apoptosis. To be noted: library dose: low library concentration; 72 h.
`Cc1cn(-c2cc(NC(=O)c3ccc(C)c(Nc4nccc(-c5cccnc5)n4)c3)cc(C(F)(F)F)c2)cn1` [nilotinib] + CN(NC(=O)CC(=O)NN(C)C(=S)c1ccccc1)C(=S)c1ccccc1 [STA4783] (first compound 0.2 µM, partner dose 0.006 µM): the “cleaved PARP positive nuclei fraction” value worked out at 67.6%. On to `O=C(/C=C/c1cccnc1)NCCCCC1CCN(C(=O)c2ccccc2)CC1` + O=C(Nc1ccccc1)c1cc([N+](=O)[O-])ccc1Cl [GW9662] (first compound 0.01 µM, partner dose 2 µM), for which the “cleaved PARP positive nuclei fraction” value worked out at 79.9%.

For the compound `CC[C@]1(O)C[C@H]2CN(CCc3c([nH]c4ccccc34)[C@@](C(=O)OC)(c3cc4c(cc3OC)N(C=O)[C@H]3[C@@](O)(C(=O)OC)[C@H](OC(C)=O)[C@]5(CC)C=CCN6CC[C@]43[C@@H]65)C2)C1` [vincristine] + O=c1cc(-c2cccc3c2Sc2ccccc2S3)oc(N2CCOCC2)c1 [KU55933] (first compound 0.0001 µM, partner dose 1 µM), the “cleaved PARP positive nuclei fraction” value came to 57.9%.

Regarding `N#CC[C@H](C1CCCC1)n1cc(-c2ncnc3[nH]ccc23)cn1` [ruxolitinib] + NCC(=O)Nc1ccc(-n2nc(C(F)(F)F)cc2-c2ccc3c(ccc4ccccc43)c2)cc1 [OSU03012] (first compound 1 µM, partner dose 1 µM), the “cleaved PARP positive nuclei fraction” value worked out at 133%.

Consider `O=c1[nH]nc(Sc2ncc([N+](=O)[O-])s2)n1-c1ccc2c(c1)OCCO2` + CC(C)CCN1c2nc(Nc3cc(F)c(O)c(F)c3)ncc2N(C)C(=O)C1C [BID1870] (first compound 0.2 µM, partner dose 0.2 µM), for which the “cleaved PARP positive nuclei fraction” value came out at 130%.
